The exact form of at least one protein or probe is not confirmed. Negatives hold for the conditions tested. For part of these data: At least one verdict rests on a figure or table, not on a statement of the authors. For part of these data: At least one result comes from cells or an extract, where the contact may be indirect. For part of these data: Tags and fusion partners may be left off the protein sequences shown.

For series [1], the target named is GST-Kaiso (UniProt Q86T24). Briefly: EMSA. The note with it: Nonradioactive EMSA, 6-FAM probes, temperature not stated, commercial protein, protein details: GST, label: 6-FAM (probe), unlabelled as competitor. A general note: In EMSA bound probe runs differently from free probe, usually more slowly.
The target in series [2] is T1, Kaiso (overexpressed in HUVEC, nuclear extract) (UniProt Q86T24).
T1 sequence (looked up, limits assumed): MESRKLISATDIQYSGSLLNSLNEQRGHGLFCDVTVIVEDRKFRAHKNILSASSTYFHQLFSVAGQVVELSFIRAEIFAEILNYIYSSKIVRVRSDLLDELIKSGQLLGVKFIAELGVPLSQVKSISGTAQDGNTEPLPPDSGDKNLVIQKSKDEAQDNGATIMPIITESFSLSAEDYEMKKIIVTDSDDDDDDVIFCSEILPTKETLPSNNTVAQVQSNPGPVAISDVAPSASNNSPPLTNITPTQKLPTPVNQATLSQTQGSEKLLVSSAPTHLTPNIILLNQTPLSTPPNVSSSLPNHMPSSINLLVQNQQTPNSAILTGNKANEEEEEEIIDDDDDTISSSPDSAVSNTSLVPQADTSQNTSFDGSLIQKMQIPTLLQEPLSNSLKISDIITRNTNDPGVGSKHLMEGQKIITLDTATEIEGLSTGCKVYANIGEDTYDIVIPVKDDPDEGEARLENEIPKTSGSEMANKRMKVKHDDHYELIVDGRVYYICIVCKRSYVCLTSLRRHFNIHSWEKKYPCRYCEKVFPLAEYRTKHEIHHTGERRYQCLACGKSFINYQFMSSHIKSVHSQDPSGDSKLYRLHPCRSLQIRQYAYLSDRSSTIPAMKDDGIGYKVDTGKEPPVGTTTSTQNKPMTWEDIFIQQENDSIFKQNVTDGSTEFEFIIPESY
Briefly: EMSA. The note with it: Nonradioactive EMSA, 6-FAM probes, temperature not stated, protein in an extract, label: 6-FAM (probe), unlabelled as competitor.

In series [3] the target is GST-Kaiso (UniProt Q86T24). The series is described as follows: competition with a labelled probe. Particulars: Nonradioactive EMSA, 6-FAM probes, temperature not stated, commercial protein, protein details: GST, label: 6-FAM (probe), unlabelled as competitor.
The target in series [4] is T1, Kaiso (overexpressed in HUVEC, nuclear extract). The series is described as follows: competition with a labelled probe. Particulars: Nonradioactive EMSA, 6-FAM probes, temperature not stated, protein in an extract, label: 6-FAM (probe), unlabelled as competitor.
The mark [5] stands for this setting: unlabelled competitor vs FAM-N1.
[6] abbreviates: unlabelled competitor vs FAM-N7.
The mark [7] stands for this setting: unlabelled competitor vs FAM-N5.

Consider “AAATTTCCAACATCTCATGC (double strand) [BCL2 -193 KBS mutant probe (3709-MU)]”, for which the binding result (with GST-Kaiso [1]; in series [2]; in the series with GST-Kaiso [3] (setting [5]); in series [4] (setting [5])) was “no binding” each time.
Turning to “AAATTTCCTGCATCTCATGC (double strand) [BCL2 -193 KBS WT probe (3709-WT)]”, the binding result (with GST-Kaiso [1] (supershift with anti-GST); in series [2] (supershift with anti-Kaiso); in the series with GST-Kaiso [3] (setting [5]); in series [4] (setting [5])) was “binds” each time.
With “TAGGGGTGAAGTCATATGCT (double strand) [BIK -36 KBS mutant probe]”, the binding result (in the series with GST-Kaiso [1]; in series [2]; in the series with GST-Kaiso [3] (setting [6]); in series [4] (setting [6])) was “no binding” each time.
For the sequence “TAGGGGTCCAGTCATATGCT (double strand) [BIK -36 KBS WT probe]”, the binding result (with GST-Kaiso [1] (supershift with anti-GST); in series [2] (supershift with anti-Kaiso); with GST-Kaiso [3] (setting [6]); in series [4] (setting [6])) was “binds” throughout.
Take “GGGTCATCCAATGAGAGAGC (double strand) [BIK -75 KBS mutant probe]”: the binding result (with GST-Kaiso [1]; in series [2]; with GST-Kaiso [3] (setting [7]); in series [4] (setting [7])) was “no binding” each time.
With “GGGTCATCCTGTGAGAGAGC (double strand) [BIK -75 KBS WT probe]”, the binding result (in the series with GST-Kaiso [1] (supershift with anti-GST); in series [2] (supershift with anti-Kaiso); with GST-Kaiso [3] (setting [7]); in series [4] (setting [7])) was “binds” throughout.

(Values after paper PMC5540925.)
